The test concerns MX-1 breast xenograft, intrarenal, nude mice, tumor weight. In words: NCI In Vivo Anticancer Drug Screen. Data for tumor model Human Mammary Carcinoma MX-1 Xenograft (intrarenal inoculation) in NU/NU BALB/C (nude) mice. To be noted: T/C endpoint: mean tumor weight change, higher T/C = larger tumour; for T/C: evaluated on day 11. The procedure:
The antitumor activity of compounds was measured in mice bearing transplantable tumors. Survival or tumor size were measured and the results are expressed as the measurement made in the treated group (T) divided by the measurement made in the vehicle treated control group (C). The tumor model used in this assay is Human Mammary Carcinoma MX-1 Xenograft (intrarenal inoculation) in NU/NU BALB/C (nude) mice
A general note: Xenograft models place foreign cells or tissue in a host animal.

Where [1] appears, read: dose: 150.0 mg/kg/injection, schedule: Q04DX003 (sc), vehicle: water.

The list does not hold the whole screen: it covers a few groups of compounds. Not every dose and run of a compound is shown. T/C is the treated group as % of the vehicle group. Schedules are NCI's codes, taken here to give the interval after Q, in days (D) or hours (H), and the number of doses after X. Counts like (3×) give the number of equal values in this list. Some doses were run more than once; their values stand side by side, smallest first. Some T/C values are negative: the treated tumours shrank. Some doses have a count of surviving animals in place of a T/C: the source holds a T/C of zero for them, seemingly a mark for toxic or unscored doses. Counts of survivors are from the toxicity check, whose day is not always given; animals may have died later.

Consider `NC1CCCCC1.NP(=O)(O)N(CCCl)CCCl`, for which the T/C reads like this: (dose: 75.0 mg/kg/injection, schedule: Q04DX003 (sc), vehicle: water) 12 and 13 % of control; under setting [1], 2 % of control. In addition, the survivor count runs as follows: under setting [1], 1 of 3 on day 11; (dose: 300.0 mg/kg/injection, schedule: Q04DX003 (sc), vehicle: water) 0 of 3 on day 11 and 0 of 6 on day 11; (dose: 600.0 mg/kg/injection, schedule: Q04DX003 (sc), vehicle: water) 0 of 6 on day 11.
Regarding `CC1=CC(=O)C(N(CCCl)CCCl)=CC1=O`, the T/C (dose: 0.75 mg/kg/injection, schedule: Q01DX010 (sc), vehicle: Klucel (hydroxypropylcellulose) (HPC)) was -35 % of control; the T/C (dose: 1.5 mg/kg/injection, schedule: Q01DX010 (sc), vehicle: Klucel (hydroxypropylcellulose) (HPC)) is -20 % of control; the T/C (dose: 3.0 mg/kg/injection, schedule: Q01DX010 (sc), vehicle: Klucel (hydroxypropylcellulose) (HPC)) was -58 % of control.
Consider `Cc1ccc(N(CCBr)CCBr)cc1`, for which the T/C is, setting by setting: (dose: 18.75 mg/kg/injection, schedule: Q04DX003 (sc), vehicle: Klucel (hydroxypropylcellulose) (HPC)) -6 % of control; (dose: 37.5 mg/kg/injection, schedule: Q04DX003 (sc), vehicle: Klucel (hydroxypropylcellulose) (HPC)) -100 % of control. In addition, the survivor count is reported as 3 of 6 on day 11 (dose: 75.0 mg/kg/injection, schedule: Q04DX003 (sc), vehicle: Klucel (hydroxypropylcellulose) (HPC)) and 0 of 6 on day 11 (dose: 150.0 mg/kg/injection, schedule: Q04DX003 (sc), vehicle: Klucel (hydroxypropylcellulose) (HPC)).
With `O=NN(CCSCCCl)C(=O)NC1CCCCC1`, the T/C was 12 % of control (dose: 300.0 mg/kg/injection, schedule: Q04DX003 (sc), vehicle: saline + Tween-80 + alcohol); 2 % of control (dose: 600.0 mg/kg/injection, schedule: Q04DX003 (sc), vehicle: saline + Tween-80 + alcohol); -100 % of control (dose: 900.0 mg/kg/injection, schedule: Q04DX003 (sc), vehicle: saline + Tween-80 + alcohol).
Turning to `NCCN(CCCl)CCCl`, the T/C by setting is: (dose: 0.58 mg/kg/injection, schedule: Q04DX003 (ip), vehicle: saline) 1 % of control; (dose: 0.96 mg/kg/injection, schedule: Q04DX003 (ip), vehicle: saline) 6 % of control; (dose: 1.6 mg/kg/injection, schedule: Q04DX003 (ip), vehicle: saline) 4 % of control (2×).

The record behind these values is PubChem BioAssay AID298 (DTP/NCI, 2004).
